# Some of the results follow. Further columns of the screen follow, without active or inactive calls. The list favours compounds with an active or inconclusive main result. Words in brackets tell the shape of the fitted curve; partial curves, single points and poor fits give uncertain potencies.
# Test: qHTS Assay for Lipid Storage Modulators in Drosophila S3 Cells;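 for cell number change: cells counted by Cell Tracker Red CMTPX staining in the red channel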
# Conditions: BODIPY lipid droplet fluorescence, 18-24 h; for cell number change: measured here: cell count max response, cells fed with added oleic acid
# In short: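 Drosophila S3 cells got compounds at several concentrations plus oleic acid (400 uM solution). Laser-scanning cytometry with 488 nm excitation read lipid droplets at 500-530 nm and cells at 575-640 nm. Percent activity was relative to 20 uM Triacsin C.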
# [1] = measured here: lipid fluorescence (Fed channel) AC50, cells fed with added oleic acid
# [2] = measured here: cell number channel AC50, cells fed with added oleic acid
Compound,cell number change [%],AC50 [1],AC50 [2]
Cc1nccn1-c1cc(C(C)(C)C)nc2c(-c3ccccc3)cnn12,-23,"0.366 µM [falling, partial curve, poor fit]",–
CCc1ccc(-c2nc(CN3CCC(C(=O)N4CCN(c5ccccc5)CC4)CC3)c(C)o2)cc1,-30.3,"29.1 µM [falling, single point]","29.1 µM [falling, single point]"
CC(=O)C1=C(C)NC(SCc2cccc3ccccc23)=C(C#N)C1c1ccco1 (stereo unspecified),2.56,"1.64 µM [rising, full curve, poor fit]",–
Cc1ccc(NS(=O)(=O)c2ccc(C(=O)NCCCN3CCCC3=O)cc2)cc1,-18.2,"0.731 µM [falling, partial curve]",–
Cn1c(=O)n(C)c2cc(S(=O)(=O)NCCO)ccc21,3.31,"6.51 µM [falling, single point]",–
CCCn1c(=N)c(S(=O)(=O)c2ccccc2)cc2c(=O)n3ccccc3nc21,-24,–,–
C[C@@H]1CCC[C@@]2(O[C@H](CCO)C[C@@H](O)[C@@H]2O)O1,-22.6,"0.731 µM [falling, full curve]",–
CN(C(=O)c1cccc(C(=O)N(C)c2ccccc2)c1)c1ccccc1,-3.81,"29.1 µM [rising, single point]",–
CCOc1ccc2[nH]c3nc(SCC(=O)NCC4CCCO4)nnc3c2c1 (stereo unspecified),-25,–,–
O=C(NC(=O)N1CCOCC1)c1ccccc1,42.5,"1.16 µM [falling, full curve, poor fit]","29.1 µM [rising, single point]"
Cc1ccccc1C(=O)NC(=S)Nc1ncccn1,8.4,"29.1 µM [rising, single point]",–
Cc1ccc(S(=O)(=O)N2CCCCC2C(=O)N2CCN(C)CC2)cc1 (stereo unspecified),8.37,"6.51 µM [falling, single point]",–
CCCC(=O)N=c1sc2c(OC)ccc(OC)c2n1C,–,"1.3 µM [rising, full curve, poor fit]",–
Cc1cc(-c2ccccc2C(=O)NCc2ccccc2)on1,–,–,"0.326 µM [rising, full curve]"
Cc1c(C(=O)OCC(=O)Nc2ccc(S(N)(=O)=O)cc2)oc2c1ccc1ccccc12,-50,"32.6 µM [falling, partial curve, poor fit]","13 µM [falling, partial curve]"
O=C(CSc1nnnn1-c1ccc2c(c1)CCC2)NCc1cccs1,16.7,–,–
O=C(Nc1cccc(S(=O)(=O)N2CCOCC2)c1)c1ccc2ccccc2n1,-20.2,"10.3 µM [falling, partial curve, poor fit]",–
COC(=O)c1cc(NC(=O)CC2SCCNC2=O)cc(C(=O)OC)c1 (stereo unspecified),42.4,"1.3 µM [rising, full curve]","1.46 µM [rising, partial curve, poor fit]"
CCN1CCN(C(=O)Nc2cccc3ccccc23)CC1,49.5,"3.66 µM [falling, full curve, poor fit]","3.66 µM [rising, full curve]"
O=C1C=C(NCCNc2c(F)c(F)c(CO)c(F)c2F)CCC1,-43.9,"1.3 µM [falling, partial curve]","29.1 µM [falling, single point]"

# Part of the list above, tab-delimited:
Compound	cell number change [%]	AC50 [1]	AC50 [2]
Cc1ccccc1C(=O)NC(=S)Nc1ncccn1	8.4	29.1 µM [rising, single point]	–
Cc1c(C(=O)OCC(=O)Nc2ccc(S(N)(=O)=O)cc2)oc2c1ccc1ccccc12	-50	32.6 µM [falling, partial curve, poor fit]	13 µM [falling, partial curve]
O=C(Nc1cccc(S(=O)(=O)N2CCOCC2)c1)c1ccc2ccccc2n1	-20.2	10.3 µM [falling, partial curve, poor fit]	–

# Continued.

Compound,cell number change [%],AC50 [1],AC50 [2]
Cc1cc(C)c2c(C)[nH]nc2n1,-10.5,"0.0366 µM [falling, full curve]",–
Fc1ccc(Nc2c(-c3ccco3)nc3ccccn23)cc1,27.3,–,–
O=C(CCn1cnc2ccccc2c1=O)Nc1ccc2c(c1)OCCO2,9.26,"8.2 µM [rising, partial curve, poor fit]",–
CNS(=O)(=O)c1cc(NC(=O)CCCNC(=O)c2ccc(Cl)cc2)ccc1C,16.4,–,–
N#CCCn1nc(-c2ccc(Br)cc2)cc1Nc1ccccc1NC(=O)C(F)(F)F,-0.0784,"6.51 µM [rising, single point]",–
C=CC1=C(C(=O)O)N2C(=O)C(NC(=O)Cc3ccccc3)C2SC1 (stereo unspecified),5.59,"0.206 µM [falling, full curve]",–
CCCCOc1ccc(C(=O)NCC(=O)NC2CCN(Cc3ccccc3)CC2)cc1,30.2,"0.259 µM [rising, full curve, poor fit]",–
O=C(CCn1c(=O)c2ccccc2n(CC(=O)NC2CCCC2)c1=O)NCc1ccco1,45.2,"0.461 µM [rising, partial curve, poor fit]","1.16 µM [rising, partial curve]"
NC(=O)c1ccc(NC(=O)COC(=O)C2CC(=O)N(Cc3ccccc3)C2)cc1 (stereo unspecified),-40.6,"0.00517 µM [falling, full curve, poor fit]","0.00651 µM [falling, full curve, poor fit]"
CCN(CC(=O)Nc1ccc(S(N)(=O)=O)cc1)S(=O)(=O)c1cc(C)ccc1OC,14.1,"0.146 µM [falling, partial curve, poor fit]",–
Cc1sc2ncnc(N=Nc3c(O)[nH]c4ccccc34)c2c1C,–,"29.1 µM [falling, partial curve, poor fit]",–
O=C(NC1CC2CCCC(C1)N2C(=O)NC1CCCCC1)c1ccc(F)cc1 (stereo unspecified),1.73,–,–
CC1=C(C#N)C(c2ccc3ncccc3c2)C(C#N)=C(C)N1,–,"0.58 µM [falling, single point]",–
O=c1[nH]c2cc(Br)cnc2nc1/C=C(\O)c1ccc(F)cc1,0.565,–,–
CCC(C)c1ccc(NC(=S)NCc2ccccn2)cc1 (stereo unspecified),11.7,–,–
O=c1c2nnn(-c3cccc(F)c3)c2ncn1Cc1ccccn1,3.86,–,"0.164 µM [rising, full curve, poor fit]"
CCN(CC)S(=O)(=O)c1cc(C(=O)N2CCc3ccccc32)ccc1Cl,6.74,"29.1 µM [rising, partial curve]",–
COc1cccc(NC(=S)/C(=C(\[O-])c2ccc([N+](=O)[O-])cc2)[n+]2ccccc2)c1,28,–,–
CCCCOc1ccc(C(=O)NCC(=O)NC2CCCCC2)cc1,-3.63,"29.1 µM [rising, single point]",–
O=C(NC1CCCCC1)C(=S)NCCc1ccccc1,30.8,"6.51 µM [rising, single point]","1.64 µM [rising, partial curve, poor fit]"

Compound,cell number change [%],AC50 [1],AC50 [2]
Cc1ccc(NC(=O)Cn2cnc3sc(C(=O)NCc4ccco4)c(C)c3c2=O)cc1Cl,47,"0.082 µM [rising, full curve, poor fit]","29.1 µM [rising, single point]"
CC(C)(C)CC(=O)Nc1cc(S(=O)(=O)N2CCCCCC2)ccc1Cl,-2.72,"0.103 µM [rising, full curve, poor fit]","0.103 µM [falling, full curve, poor fit]"
O=C(OCC(=O)N1CCN(c2ccccc2)CC1)c1ccccc1OC(F)F,-27,"0.651 µM [falling, full curve, poor fit]",–
Cc1c(C(=O)N(C)Cc2cccc(F)c2)oc2c(Cl)cccc12,–,"0.82 µM [rising, full curve, poor fit]",–
CCN(Cc1nc(-c2ccc(OC)c(OC)c2)no1)C(=O)c1ccoc1C,5.88,"29.1 µM [falling, single point]",–
CCOC(=O)c1cc2c(=O)n3ccccc3nc2n(Cc2ccccc2Cl)c1=N,-1.43,"0.116 µM [falling, full curve, poor fit]",–
O=C(CSc1ccccn1)Nc1ccc2c(c1)C(=O)c1ccccc1C2=O,-69.8,"3.66 µM [falling, full curve]","3.26 µM [falling, partial curve]"
Cc1ccc(C(=O)NCCOC23CC4CC(CC(C4)C2)C3)cc1,67.9,"29.1 µM [rising, single point]","29.1 µM [rising, single point]"
Cc1[nH]n2c(=O)c3c(nc2c1-c1ccccc1)CCC3,9.92,–,–
COc1cc(NS(=O)(=O)c2ccc(NS(=O)(=O)c3ccc(C)cc3)cc2)nc(OC)n1,2.56,"0.116 µM [falling, single point]","0.731 µM [rising, partial curve]"
CCc1ccc(C(=O)C(C)OC(=O)c2cccc(S(=O)(=O)N3CCOCC3)c2)cc1 (stereo unspecified),159,–,"23.1 µM [rising, partial curve]"
Cc1cc(NCCCN2CCOCC2)n2ncc(-c3ccccc3)c2n1,74.5,"18.4 µM [rising, partial curve]","0.58 µM [rising, full curve]"
COc1ccc(/C=C2\SC(=S)N(NC(=O)c3csc4c3CCCC4)C2=O)cc1,-120,–,"29.1 µM [falling, single point]"
COc1ccc(NC(=O)CCC(=O)NCc2ccco2)c([N+](=O)[O-])c1,27.7,–,"0.651 µM [rising, full curve, poor fit]"
Nc1[nH]n(-c2ccccc2)c(=O)c1N=Nc1ccc2c(c1)OCO2,-36.2,"13 µM [falling, partial curve]","18.4 µM [falling, single point]"
Cc1ccc2[nH]c3c(c2c1)CC/C(=C/c1ccccc1)C3=O,-56.1,"1.46 µM [rising, partial curve]",–
COc1ccc(Cl)cc1C(=O)NNC(=O)C1CCCO1 (stereo unspecified),-108,–,"4.61 µM [falling, partial curve]"
COc1ccc(O)c(CN2CCC(n3nccc3NC(=O)C3CCCC3)CC2)c1,9.97,–,–

# Reference: PubChem BioAssay AID2685 (National Center for Advancing Translational Sciences (NCATS), 2010)
